# Measured values as given in PubChem BioAssay AID1347423 (Functional Genomics Laboratory (NCATS/FGL), 2020).
# The whole screen tested about 52,000 sequences, of which about 210 (0.4%) were called active.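 How the source made its calls: active means gene whose silencing raises cell survival under the drug, median off-target-corrected z-score across its silencing RNAs 2 or more; inactive means the rest.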 The list shows a part of the results.
# Test: Resistance to Poly (ADP-Ribose) Polymerase inhibitor: Gene Identification via Genome-wide siRNA Screen
# Settings: mouse BRCA2 R2336H ES cells, olaparib, CellTiter-Glo viability; hits give high values
# Method in brief: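 Genome-wide siRNA screen (3 siRNAs/gene, 20 nM) in mouse ES cells carrying hypomorphic BRCA2 R2336H; olaparib 500 nM added 48 h post-transfection, CellTiter-Glo viability 72 h later. Normalized to plate-median negative control; MAD z-scores, gene median, seed-adjusted.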
row,Sequence,z-score
1,GCGAUAAAGCCAACACACCTT against LOC329416,inactive: 1.29
2,GUACUUGAAACGAACUGGATT against BC038881,inactive: -1.37
3,GGAGAAGACAGCAAAGUACTT against Ppap2b,inactive: -0.0301
4,GGACUAGCGGACAUGGAUCTT against Kntc2,inactive: -0.357
5,GGAGAUUGUAGAGGACGUATT against U2af2,inactive: -2.93
6,GGGCAAAUCCUUUAGUUUGTT against Ysg2,inactive: 0.117
7,GGAAAUCCGUGCAGAAAUUTT against Man1b,inactive: 1.8
8,GGAAGAAGAGAAACACGAGTT against Xpa,inactive: -0.152
9,GGCUCCUAGUGAUUAAAAGTT against 4930578I06Rik,inactive: 0.334
10,GGAGGAUUACAACACUGUUTT against Enpp3,inactive: 0.405
11,GCCGUUUACCUUAGUCUGUTT against 2810410C14Rik,inactive: -0.791
12,GGACCUUGGCCUUACACAATT against Astn2,inactive: -1.3
13,GGAGCUGAGAAACAAGAUUTT against Bspry,inactive: 1.99
14,CGCACAAUUACCUCAGCAATT against Rassf3,inactive: -0.485
15,GGAUGACUUCAAAUCAGAATT against Tnip2,inactive: -0.0528
16,GCGGCAUAUGCCUACUCUUTT against Slc6a12,active: -1.46
17,GCGUGUACCCUUUCUAGUGTT against Slc18a3,inactive: 0.958
18,GGGCACAUACUCAGAUGAATT against Ngfr,inactive: -0.5
19,GGAACUGUCCGAUCUUAGATT against 9930111I18Rik,inactive: -0.233
20,GGAUGAUGACAAUUUUGAATT against Nap1l4,inactive: -0.13
21,GCAGGAAUUCUUGAAUUAUTT against Ly75,inactive: -0.103
22,GGCUUACCUGUACAUUGAUTT against C130053K05Rik,inactive: -2.17
23,GGGCAUUUAGGGAAAAAAUTT against Zfp451,inactive: 0.811

# Four entries from above, with bars between the fields:
row | Sequence | z-score
11 | GCCGUUUACCUUAGUCUGUTT against 2810410C14Rik | inactive: -0.791
15 | GGAUGACUUCAAAUCAGAATT against Tnip2 | inactive: -0.0528
16 | GCGGCAUAUGCCUACUCUUTT against Slc6a12 | active: -1.46
18 | GGGCACAUACUCAGAUGAATT against Ngfr | inactive: -0.5

# (cont.)

row,Sequence,z-score
1,GCCUCUCUCUAUCUAUGCATT against Tob2,inactive: 0.661
2,GGAAUUUUCAGUGUGUAAATT against Adam9,inactive: 0.229
3,GGUUUUAGUAUAAAGGCAGTT against Arfrp2,inactive: -1.58
4,GGAGCAUGUCUUUAAGAAGTT against Stac,inactive: -0.837
5,GCAUCGUUAUGCGCCUCACTT against Neurog2,inactive: 1.11
6,GGUGGUGGUGGAAAAGAAGTT against Vars2,inactive: -0.16
7,GCGACAAGAGGCUUUAGCATT against H47,inactive: -0.352
8,CGCUCUCUACGAUCAUUGUTT against Olfr481,inactive: -0.745
9,CCUAACAUUCACUGUGUCATT against Olfr994,inactive: 1.01
10,CCGUUGGAUACUGUAGUUCTT against Gpr152,inactive: 0.519
11,CCACAAUUUGACCAACUUATT against Slc9a1,inactive: 1.07
12,GGGUCCUGUUUUUAUAAUATT against AW046014,inactive: 1.59
13,GGCCAGCAAACAGUUUCUATT against Bai1,inactive: 2.51
14,AAUUGUAUGGUACUUCAUGTT against Olfr620,inactive: -0.334
15,CCAACCCUAUUAGUGGAAGTT against 6720487G11Rik,inactive: -0.323
16,GGGACAAAAGCUCCUCUAGTT against Kap,inactive: 0.638
17,GCAAUAGUUUACUUGAAGATT against 1700047E16Rik,inactive: 0.213
18,GCAUGAAAACACGUUUGGGTT against Hdac11,inactive: 0.768
19,CCGGUUGUUUUGAGUGUUGTT against Rad9b,inactive: 0.00893
20,GGGCUCAUCUCAGAGGAGATT against Astl,inactive: -0.459
21,GGAAAACUAACCAAAAUAGTT against F3,inactive: -0.633
22,GGCACUGGUUGCCAUAAAATT against 4930509O22,inactive: -0.151
23,GGGUUUCACUUUCAGUGGGTT against 4632412I24Rik,inactive: 1.39

row,Sequence,z-score
1,CCUGACAGUAGUUACUAUUTT against Olfr1154,inactive: -0.936
2,GGAGAACAAAGUGCACUUGTT against D11Ertd636e,inactive: -1.05
3,GGCUUCUUCAGAUCCUAAATT against Olfr554,inactive: 1.4
4,CGAUAAACUGGAUACCACUTT against A430083B19Rik,inactive: -0.3
5,GGGAAGAGAAUGAGAUAAATT against F7,inactive: -0.0684
6,GGAACAAGUAAAGACUGUUTT against 4932411K12,inactive: -1.74
7,GCAAUGGAUCUCGUUUUUCTT against Slc6a6,inactive: 1.77
8,CCAAAUAGCCAAACUCUUGTT against Fgf17,inactive: -0.544
9,GGAGUUUUCUUGUGUUUUUTT against Fgfbp1,inactive: 0.524
10,CGGAAACAACUGCUCUAUGTT against Scarf1,inactive: 0.0378
11,CAAUGUUUGGGAACCUUCUTT against Olfr834,inactive: -0.879
12,GGAUUCAGGAGAAAAGACCTT against Olfr569,inactive: -0.312
13,GGGAAACAUAUGGUUUUGCTT against D230050A05,inactive: -0.538
14,GCCAAGUGUUGGACUUUCATT against Fads3,inactive: -0.51
15,GGACCUAGAGGACUAUAAATT against Leprel1,inactive: -0.265
16,CCUAUGAGGUCAGAUUCUUTT against Ssr4,inactive: 0.013
17,GGAAGCUGUUCACCACUGCTT against Pex6,inactive: -0.0859
18,GGAAUUUUUGGACAAAGUATT against Grid2,active: -3.07
19,GCUUAUUUGUGGUACACGGTT against D030056L22,inactive: 0.282
20,GGUCAUAGUCACUGAUUCCTT against Magea5,inactive: -1.31
21,GCUCAUCGUGUUCGCUAUATT against Tuft1,inactive: -0.57
